# From the supplement of paper PMC8728848
# The other results are listed elsewhere or left out.
# How the values were obtained:
# Test in all cases: glycan array binding signal (z-score within array); higher = stronger binding
# Conditions in all cases: glycan notation: IUPAC condensed, linker removed
# [1] = target: Fuc(a1-2)Gal
# Outline: (§1)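 Glycan array data were curated from 3228 arrays in the Consortium for Functional Glycomics database and kept only where the protein sequence was available. Glycan names were converted to IUPAC-condensed notation, and columns mapping to the same glycan were averaged. The binding signal is a within-array Z-score, averaged across arrays of the same protein sequence at different concentrations or buffers and across linkers. Negative Z-scores can be read as non-binding.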
# [2] = target: Fuc(a1-2)Gal(b1-3)GalNAc
# Outline: as §1
# [3] = target: Fuc(a1-2)Gal(b1-3)GalNAc(a1-3)[Fuc(a1-2)]Gal(b1-4)Glc
# Outline: as §1
# [4] = target: Fuc(a1-2)Gal(b1-3)GalNAc(a1-3)[Fuc(a1-2)]Gal(b1-4)GlcNAc
# Outline: as §1
# [5] = target: Fuc(a1-2)Gal(b1-3)GalNAc(b1-3)Gal
# Outline: as §1
# [6] = target: Fuc(a1-2)Gal(b1-3)GalNAc(b1-3)Gal(a1-4)Gal(b1-4)Glc
# Outline: as §1
# [7] = target: Fuc(a1-2)Gal(b1-3)GalNAc(b1-4)[Neu5Ac(a2-3)]Gal(b1-4)Glc
# Outline: as §1
# [8] = target: Fuc(a1-2)Gal(b1-3)GlcNAc
# Outline: as §1
# [9] = target: Fuc(a1-2)Gal(b1-3)GlcNAc(b1-2)Man(a1-3)[Fuc(a1-2)Gal(b1-3)GlcNAc(b1-2)Man(a1-6)]Man(b1-4)GlcNAc(b1-4)GlcNAc
# Outline: as §1
# [10] = target: Fuc(a1-2)Gal(b1-3)GlcNAc(b1-2)Man(a1-3)[Fuc(a1-2)Gal(b1-3)GlcNAc(b1-2)Man(a1-6)]Man(b1-4)GlcNAc(b1-4)[Fuc(a1-6)]GlcNAc
# Outline: as §1
# [11] = target: Fuc(a1-2)Gal(b1-3)GlcNAc(b1-3)Gal(b1-4)Glc
# Outline: as §1
# [12] = target: Fuc(a1-2)Gal(b1-3)GlcNAc(b1-3)GalNAc
# Outline: as §1
# [13] = target: Fuc(a1-2)Gal(b1-3)GlcNAc(b1-3)[Fuc(a1-2)Gal(b1-3)GlcNAc(b1-6)]GalNAc
# Outline: as §1
# [14] = target: Fuc(a1-2)Gal(b1-3)GlcNAc(b1-3)[Gal(b1-4)GlcNAc(b1-6)]Gal(b1-4)Glc
# Outline: as §1
# [15] = target: Fuc(a1-2)Gal(b1-3)GlcNAc(b1-3)[Neu5Ac(a2-6)Gal(b1-4)GlcNAc(b1-6)]Gal(b1-4)Glc
# Outline: as §1
# [16] = target: Fuc(a1-2)Gal(b1-3)GlcNAc6S
# Outline: as §1
# [17] = target: Fuc(a1-2)Gal(b1-3)[Fuc(a1-4)]GlcNAc
# Outline: as §1
# [18] = target: Fuc(a1-2)Gal(b1-3)[Fuc(a1-4)]GlcNAc(b1-2)Man(a1-3)[Fuc(a1-2)Gal(b1-3)[Fuc(a1-4)]GlcNAc(b1-2)Man(a1-3)]Man(b1-4)GlcNAc(b1-4)GlcNAc
# Outline: as §1
# [19] = target: Fuc(a1-2)Gal(b1-3)[Fuc(a1-4)]GlcNAc(b1-2)Man(a1-3)[Fuc(a1-2)Gal(b1-3)[Fuc(a1-4)]GlcNAc(b1-2)Man(a1-6)]Man(b1-4)GlcNAc(b1-4)[Fuc(a1-6)]GlcNAc(b1-4)[Fuc(a1-6)]GlcNAc
# Outline: as §1
# [20] = target: Fuc(a1-2)Gal(b1-3)[Fuc(a1-4)]GlcNAc(b1-3)[Fuc(a1-3)[Gal(b1-4)]GlcNAc(b1-6)]Gal(b1-4)Glc
# Outline: as §1
# [21] = target: Fuc(a1-2)Gal(b1-3)[Fuc(a1-4)]GlcNAc(b1-3)[Gal(b1-4)GlcNAc(b1-6)]Gal(b1-4)Glc
# Outline: as §1
# [22] = target: Fuc(a1-2)Gal(b1-4)Glc
# Outline: as §1
# [23] = target: Fuc(a1-2)Gal(b1-4)Glc6S
# Outline: as §1
# [24] = target: Fuc(a1-2)Gal(b1-4)GlcNAc
# Outline: as §1
# [25] = target: Fuc(a1-2)Gal(b1-4)GlcNAc(b1-2)Man
# Outline: as §1
# [26] = target: Fuc(a1-2)Gal(b1-4)GlcNAc(b1-2)Man(a1-3)[Fuc(a1-2)Gal(b1-4)GlcNAc(b1-2)Man(a1-6)]Man(b1-4)GlcNAc(b1-4)GlcNAc
# Outline: as §1
# [27] = target: Fuc(a1-2)Gal(b1-4)GlcNAc(b1-2)Man(a1-3)[Fuc(a1-2)Gal(b1-4)GlcNAc(b1-2)Man(a1-6)]Man(b1-4)GlcNAc(b1-4)[Fuc(a1-6)]GlcNAc
# Outline: as §1
# [28] = target: Fuc(a1-2)Gal(b1-4)GlcNAc(b1-2)[Fuc(a1-2)Gal(b1-4)GlcNAc(b1-4)]Man(a1-3)[Fuc(a1-2)Gal(b1-4)GlcNAc(b1-2)Man(a1-6)]Man(b1-4)GlcNAc(b1-4)GlcNAc
# Outline: as §1
# [29] = target: Fuc(a1-2)Gal(b1-4)GlcNAc(b1-3)Gal(b1-4)GlcNAc
# Outline: as §1
# [30] = target: Fuc(a1-2)Gal(b1-4)GlcNAc(b1-3)Gal(b1-4)GlcNAc(b1-2)Man(a1-3)[Fuc(a1-2)Gal(b1-4)GlcNAc(b1-3)Gal(b1-4)GlcNAc(b1-2)Man(a1-6)]Man(b1-4)GlcNAc(b1-4)GlcNAc
# Outline: as §1
# [31] = target: Fuc(a1-2)Gal(b1-4)GlcNAc(b1-3)Gal(b1-4)GlcNAc(b1-3)Gal(b1-4)GlcNAc
# Outline: as §1
# [32] = target: Fuc(a1-2)Gal(b1-4)GlcNAc(b1-3)GalNAc
# Outline: as §1
# [33] = target: Fuc(a1-2)Gal(b1-4)GlcNAc(b1-3)[Fuc(a1-2)Gal(b1-4)GlcNAc(b1-6)]GalNAc
# Outline: as §1
# [34] = target: Fuc(a1-2)Gal(b1-4)GlcNAc(b1-3)[Fuc(a1-3)[Gal(b1-4)]GlcNAc(b1-6)]Gal(b1-4)Glc
# Outline: as §1
# [35] = target: Fuc(a1-2)Gal(b1-4)GlcNAc(b1-6)GalNAc
# Outline: as §1
# [36] = target: Fuc(a1-2)Gal(b1-4)GlcNAc6S
# Outline: as §1
# [37] = target: Fuc(a1-2)Gal(b1-4)[Fuc(a1-3)]GlcNAc
# Outline: as §1
# [38] = target: Fuc(a1-2)Gal(b1-4)[Fuc(a1-3)]GlcNAc(b1-2)Man(a1-3)[Fuc(a1-2)Gal(b1-4)[Fuc(a1-3)]GlcNAc(b1-2)Man(a1-6)]Man(b1-4)GlcNAc(b1-4)[Fuc(a1-6)]GlcNAc
# Outline: as §1
# [39] = target: Fuc(a1-2)Gal(b1-4)[Fuc(a1-3)]GlcNAc(b1-2)[Fuc(a1-2)Gal(b1-4)[Fuc(a1-3)]GlcNAc(b1-4)]Man(a1-3)[Fuc(a1-2)Gal(b1-4)[Fuc(a1-3)]GlcNAc(b1-2)Man(a1-6)]Man(b1-4)GlcNAc(b1-4)GlcNAc
# Outline: as §1
# [40] = target: Fuc(a1-2)Gal(b1-4)[Fuc(a1-3)]GlcNAc(b1-3)Gal(b1-4)[Fuc(a1-3)]GlcNAc
# Outline: as §1
# [41] = target: Fuc(a1-2)Gal(b1-4)[Fuc(a1-3)]GlcNAc(b1-3)Gal(b1-4)[Fuc(a1-3)]GlcNAc(b1-3)Gal(b1-4)[Fuc(a1-3)]GlcNAc
# Outline: as §1
# [42] = target: Fuc(a1-2)Gal(b1-4)[Fuc(a1-3)]GlcNAc(b1-3)GalNAc
# Outline: as §1
# [43] = target: Fuc(a1-2)Gal(b1-4)[Fuc(a1-3)]GlcNAc(b1-3)[Neu5Ac(a2-6)Gal(b1-4)GlcNAc(b1-6)]Gal(b1-4)Glc
# Outline: as §1
# [44] = target: Fuc(a1-2)Gal3S(b1-4)GlcNAc
# Outline: as §1
# [45] = target: Fuc(a1-2)Gal6S(b1-3)GlcNAc
# Outline: as §1
binder,measurement,setting,value
Pbx1CASH domain (Cryptococcus neoformans) (protein) MDETKPLWGNPRADGISLACKDSIVERNVVYDATDGAIVLFGSAGSTVKNNHVYARTRVILGGINLVDYEPWDGDYTNVKVHHNHLYALGRYFKVGIVIGPASWSDDTESVVHSASVTDNEFSGGYWGYGIVVASAKNFEVLRNKVIWDGEQGVARFSGVPGS,glycan array binding signal (z-score),[1],-0.416
same,glycan array binding signal (z-score),[2],-0.606
same,glycan array binding signal (z-score),[3],0.693
same,glycan array binding signal (z-score),[4],0.739
same,glycan array binding signal (z-score),[5],1.37
same,glycan array binding signal (z-score),[6],0.581
same,glycan array binding signal (z-score),[7],-0.348
same,glycan array binding signal (z-score),[8],-0.352
same,glycan array binding signal (z-score),[9],-0.517
same,glycan array binding signal (z-score),[10],-0.339
same,glycan array binding signal (z-score),[11],-0.024
same,glycan array binding signal (z-score),[12],0.513
same,glycan array binding signal (z-score),[13],-0.799
same,glycan array binding signal (z-score),[14],0.324
same,glycan array binding signal (z-score),[15],-0.317
same,glycan array binding signal (z-score),[16],0.576
same,glycan array binding signal (z-score),[17],-0.689
same,glycan array binding signal (z-score),[18],-0.194
same,glycan array binding signal (z-score),[19],-0.153
same,glycan array binding signal (z-score),[20],-0.302
same,glycan array binding signal (z-score),[21],-0.554
same,glycan array binding signal (z-score),[22],-0.337
same,glycan array binding signal (z-score),[23],0.107
same,glycan array binding signal (z-score),[24],-0.647
same,glycan array binding signal (z-score),[25],0.929
same,glycan array binding signal (z-score),[26],0.333
same,glycan array binding signal (z-score),[27],-0.411
same,glycan array binding signal (z-score),[28],-0.526
same,glycan array binding signal (z-score),[29],-0.617
same,glycan array binding signal (z-score),[30],-0.289
same,glycan array binding signal (z-score),[31],-0.379
same,glycan array binding signal (z-score),[32],-0.241
same,glycan array binding signal (z-score),[33],0.022
same,glycan array binding signal (z-score),[34],-0.729
same,glycan array binding signal (z-score),[35],-0.331
same,glycan array binding signal (z-score),[36],-0.382
same,glycan array binding signal (z-score),[37],-0.451
same,glycan array binding signal (z-score),[38],-0.203
same,glycan array binding signal (z-score),[39],0.549
same,glycan array binding signal (z-score),[40],0.33
same,glycan array binding signal (z-score),[41],-0.167
same,glycan array binding signal (z-score),[42],2.39
same,glycan array binding signal (z-score),[43],1.05
same,glycan array binding signal (z-score),[44],-0.881
same,glycan array binding signal (z-score),[45],-0.195

# Reformatted: results already given
binder | measurement | setting | value
Pbx1CASH domain (Cryptococcus neoformans) (protein) MDETKPLWGNPRADGISLACKDSIVERNVVYDATDGAIVLFGSAGSTVKNNHVYARTRVILGGINLVDYEPWDGDYTNVKVHHNHLYALGRYFKVGIVIGPASWSDDTESVVHSASVTDNEFSGGYWGYGIVVASAKNFEVLRNKVIWDGEQGVARFSGVPGS | glycan array binding signal (z-score) | [12] | 0.513
same | glycan array binding signal (z-score) | [13] | -0.799
same | glycan array binding signal (z-score) | [14] | 0.324
